Experimental data: PubChem BioAssay AID1224829 (NIAID, 2016)
Here is one part, drawn at random, of about 3,800 deposited reagents. 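Calls cover raised and lowered translocation; gene median uses one vendor's three siRNAs; qiagen siRNAs acted more weakly than ambion siRNAs.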 The numbers tell different reagents against one gene apart. Not all columns of the deposit are shown.

- Assay: 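Follow-up of TLR4-NF-kappaB regulators using six separate siRNAs for each gene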 (follow-up of hits)
- Cell system: mouse RAW264.7 G9 macrophage reporter cells
- Reagent: single siRNA against mouse genes, 100 nM
- Duration: 2 days of siRNA knock-down, then 40 min of LPS before fixing
- Challenge: LPS (Salmonella minnesota R595) at 10 ng/ml
- Detection: 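Imaging of GFP-p65 after 40 min of LPS; nuclear over perinuclear ring intensity ratio, scaled to plate median and non-targeting control wells, given as z-score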
- Scale: p65 translocation z-score: higher = more nuclear NF-kappaB p65 after LPS
- Active means: 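Active means the replicate-mean z-score lies beyond plus or minus 2, in either direction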
- Meaning of the calls: active = changed p65 translocation (either direction); inactive = no clear change

Zfp747 #1, siRNA vendor or control pool ambion single siRNA: p65 translocation z-score, replicate mean = -1.36; outcome = inactive
Zfp747 #2, siRNA vendor or control pool ambion single siRNA: p65 translocation z-score, replicate mean = -2.44; outcome = active
Zfp747 #3, siRNA vendor or control pool ambion single siRNA: p65 translocation z-score, replicate mean = -4.93; outcome = active
Zfp747 #4, siRNA vendor or control pool qiagen single siRNA: p65 translocation z-score, replicate mean = 2.49; outcome = active
Zfp747 #5, siRNA vendor or control pool qiagen single siRNA: p65 translocation z-score, replicate mean = 0.418; outcome = inactive
Zfp747 #6, siRNA vendor or control pool qiagen single siRNA: p65 translocation z-score, replicate mean = 0.833; outcome = inactive
Brpf1 #1, siRNA vendor or control pool ambion single siRNA: p65 translocation z-score, replicate mean = 0.891; outcome = inactive
Brpf1 #2, siRNA vendor or control pool ambion single siRNA: p65 translocation z-score, replicate mean = 0.838; outcome = inactive
Brpf1 #3, siRNA vendor or control pool ambion single siRNA: p65 translocation z-score, replicate mean = -3.94; outcome = active
Brpf1 #4, siRNA vendor or control pool qiagen single siRNA: p65 translocation z-score, replicate mean = -4.43; outcome = active
Brpf1 #5, siRNA vendor or control pool qiagen single siRNA: p65 translocation z-score, replicate mean = -3.15; outcome = active
Brpf1 #6, siRNA vendor or control pool qiagen single siRNA: p65 translocation z-score, replicate mean = -1.71; outcome = inactive

Active calls, among the entries above:
Zfp747 #2, siRNA vendor or control pool ambion single siRNA: p65 translocation z-score, replicate mean = -2.44; outcome = active
Zfp747 #3, siRNA vendor or control pool ambion single siRNA: p65 translocation z-score, replicate mean = -4.93; outcome = active
Zfp747 #4, siRNA vendor or control pool qiagen single siRNA: p65 translocation z-score, replicate mean = 2.49; outcome = active
Brpf1 #3, siRNA vendor or control pool ambion single siRNA: p65 translocation z-score, replicate mean = -3.94; outcome = active
Brpf1 #4, siRNA vendor or control pool qiagen single siRNA: p65 translocation z-score, replicate mean = -4.43; outcome = active
Brpf1 #5, siRNA vendor or control pool qiagen single siRNA: p65 translocation z-score, replicate mean = -3.15; outcome = active

The listing continues:
Dpm2 #1, siRNA vendor or control pool ambion single siRNA: p65 translocation z-score, replicate mean = -0.208; outcome = inactive
Dpm2 #2, siRNA vendor or control pool ambion single siRNA: p65 translocation z-score, replicate mean = -1.61; outcome = inactive
Dpm2 #3, siRNA vendor or control pool ambion single siRNA: p65 translocation z-score, replicate mean = 0.129; outcome = inactive
Dpm2 #4, siRNA vendor or control pool qiagen single siRNA: p65 translocation z-score, replicate mean = 1.75; outcome = inactive
Dpm2 #5, siRNA vendor or control pool qiagen single siRNA: p65 translocation z-score, replicate mean = 0.536; outcome = inactive
Dpm2 #6, siRNA vendor or control pool qiagen single siRNA: p65 translocation z-score, replicate mean = -3.52; outcome = active
Slc10a4 #1, siRNA vendor or control pool ambion single siRNA: p65 translocation z-score, replicate mean = -1.08; outcome = inactive
Slc10a4 #2, siRNA vendor or control pool ambion single siRNA: p65 translocation z-score, replicate mean = 0.935; outcome = inactive
Slc10a4 #3, siRNA vendor or control pool ambion single siRNA: p65 translocation z-score, replicate mean = -0.0389; outcome = inactive
Slc10a4 #4, siRNA vendor or control pool qiagen single siRNA: p65 translocation z-score, replicate mean = 1.75; outcome = inactive
Slc10a4 #5, siRNA vendor or control pool qiagen single siRNA: p65 translocation z-score, replicate mean = -0.0525; outcome = inactive
Slc10a4 #6, siRNA vendor or control pool qiagen single siRNA: p65 translocation z-score, replicate mean = -1.2; outcome = inactive
